Measurements reported in PubChem BioAssay AID1259308 (NCATS, 2017).

- Assay: 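Genes whose loss raises luciferase production in HEK293 cells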 (primary screen)
- System: human HEK293 embryonic kidney cells stably expressing firefly luciferase (HEK-CMV-Luc2-Hygro)
- Reagents: single siRNA against human genes, 0.8 pmol siRNA per well
- Timing: 72 h
- Measurement: 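Reporter luminescence and viable-cell signal on separate replicate plates, given as percent of non-targeting control and median/MAD z-scores, plus per-cell luciferase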
- Direction: total luciferase, z-score and total luciferase, % of control: higher = more reporter protein produced; luciferase per cell, z-score: higher = more reporter output per viable cell
- Call rule: 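Active when the median/MAD z-score for overall luciferase is greater than 3; a gene was taken forward for validation with new siRNAs if at least two of its three siRNAs passed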
- Meaning of the calls: active = raised luciferase; inactive = no rise
This is an unselected part of about 59,000 reagents tested. Of all reagents, about 1,510 (2.6%) are marked active. 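Calls use total luciferase alone and ignore viability, so some active siRNAs may act by altering cell number.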 Reagents against one gene are numbered here. Further read-outs or replicates are left out here.

| total luciferase, z-score | total luciferase, % of control | luciferase per cell, z-score | call | Gene | reagent |
| --- | --- | --- | --- | --- | --- |
| 0.206 | 86 | 0.594 | inactive | DNAJC5B (GeneID 85479) | 1 |
| 0.988 | 102 | 0.966 | inactive | DNAJC5B (GeneID 85479) | 2 |
| -1.7 | 48.1 | -1.27 | inactive | DNAJC5B (GeneID 85479) | 3 |
| 0.499 | 91.8 | 1.1 | inactive | PMS2P10 (GeneID 100288713) | 1 |
| -1.61 | 49.9 | -1.02 | inactive | PMS2P10 (GeneID 100288713) | 2 |
| -1.37 | 54.6 | -1.8 | inactive | PMS2P10 (GeneID 100288713) | 3 |
| -1.66 | 48.8 | -2.02 | inactive | TSSC4 (GeneID 10078) | 1 |
| -1.15 | 59.1 | -0.312 | inactive | TSSC4 (GeneID 10078) | 2 |
| 1.03 | 102 | 0.75 | inactive | TSSC4 (GeneID 10078) | 3 |
| -1.26 | 56.7 | -1.41 | inactive | ZDHHC11B (GeneID 653082) | 1 |
| -0.442 | 73.1 | -0.245 | inactive | ZDHHC11B (GeneID 653082) | 2 |
| 1.34 | 108 | 1.18 | inactive | ZDHHC11B (GeneID 653082) | 3 |
| -0.896 | 64.1 | 0.809 | inactive | CDCA5 (GeneID 113130) | 1 |
| -1.2 | 58.1 | 0.284 | inactive | CDCA5 (GeneID 113130) | 2 |
| 1.73 | 116 | 2.15 | inactive | CDCA5 (GeneID 113130) | 3 |
| -0.581 | 70.3 | -1.02 | inactive | AHSG (GeneID 197) | 1 |
| -0.357 | 74.8 | -0.413 | inactive | AHSG (GeneID 197) | 2 |
| 0.812 | 98 | 1.14 | inactive | AHSG (GeneID 197) | 3 |
| 1.16 | 105 | 0.727 | inactive | SLC38A5 (GeneID 92745) | 1 |
| 0.654 | 94.9 | -0.276 | inactive | SLC38A5 (GeneID 92745) | 2 |
| -0.486 | 72.2 | -0.0734 | inactive | SLC38A5 (GeneID 92745) | 3 |
| 0.553 | 92.9 | -0.0368 | inactive | RGS12 (GeneID 6002) | 1 |
| 0.381 | 89.5 | -0.335 | inactive | RGS12 (GeneID 6002) | 2 |
| 0.0793 | 83.5 | -0.357 | inactive | RGS12 (GeneID 6002) | 3 |
| 2.94 | 140 | 1.36 | inactive | SEPTIN1 (GeneID 1731) | 1 |
| -1.79 | 46.2 | -1.43 | inactive | SEPTIN1 (GeneID 1731) | 2 |
| 0.764 | 97.1 | -0.111 | inactive | SEPTIN1 (GeneID 1731) | 3 |
| 0.227 | 86.4 | -0.163 | inactive | FOXA2 (GeneID 3170) | 1 |
| 0.455 | 90.9 | -0.223 | inactive | FOXA2 (GeneID 3170) | 2 |
| 1.56 | 113 | 0.873 | inactive | FOXA2 (GeneID 3170) | 3 |
| 2 | 122 | 1.16 | inactive | LINC00477 (GeneID 144360) | 1 |
| 1.58 | 113 | 0.925 | inactive | LINC00477 (GeneID 144360) | 2 |
| -1.12 | 59.6 | -1.37 | inactive | LINC00477 (GeneID 144360) | 3 |
| -0.588 | 70.2 | -0.625 | inactive | SERPINB10 (GeneID 5273) | 1 |
| -1.68 | 48.4 | -2.3 | inactive | SERPINB10 (GeneID 5273) | 2 |
| -0.651 | 68.9 | -1.22 | inactive | SERPINB10 (GeneID 5273) | 3 |
| 0.331 | 88.5 | 0.104 | inactive | SPDYE7P (GeneID 441251) | 1 |
| 0.362 | 89.1 | -0.808 | inactive | SPDYE7P (GeneID 441251) | 2 |
| 1.77 | 117 | 0.746 | inactive | SPDYE7P (GeneID 441251) | 3 |
| 0.398 | 89.8 | 0.696 | inactive | AWAT2 (GeneID 158835) | 1 |
| 1.77 | 117 | 0.648 | inactive | AWAT2 (GeneID 158835) | 2 |
| 0.448 | 90.8 | 0.652 | inactive | AWAT2 (GeneID 158835) | 3 |
| 1.73 | 116 | 1.14 | inactive | ZDHHC11 (GeneID 79844) | 1 |
| 1.04 | 103 | 0.465 | inactive | ZDHHC11 (GeneID 79844) | 2 |
| 2.67 | 135 | 3.01 | inactive | ZDHHC11 (GeneID 79844) | 3 |
| -0.222 | 77.5 | -0.283 | inactive | ZNF284 (GeneID 342909) | 1 |
| -0.148 | 79 | -0.237 | inactive | ZNF284 (GeneID 342909) | 2 |
| -0.338 | 75.2 | -0.0167 | inactive | ZNF284 (GeneID 342909) | 3 |
| 0.0254 | 82.4 | -0.0311 | inactive | PLVAP (GeneID 83483) | 1 |
| 3.56 | 153 | 2.67 | active | PLVAP (GeneID 83483) | 2 |
| 0.216 | 86.2 | 0.0344 | inactive | PLVAP (GeneID 83483) | 3 |
| 1.23 | 106 | 0.897 | inactive | WWTR1 (GeneID 25937) | 1 |
| -0.944 | 63.1 | -0.419 | inactive | WWTR1 (GeneID 25937) | 2 |
| -0.125 | 79.4 | -0.323 | inactive | WWTR1 (GeneID 25937) | 3 |
| 2.79 | 137 | 3.14 | inactive | WDR18 (GeneID 57418) | 1 |
| -0.793 | 66.1 | -0.975 | inactive | WDR18 (GeneID 57418) | 2 |
| -0.744 | 67.1 | -0.512 | inactive | WDR18 (GeneID 57418) | 3 |

Laid out differently: results already given.
PLVAP (GeneID 83483) #2 — total luciferase, z-score: 3.56; total luciferase, % of control: 153; luciferase per cell, z-score: 2.67; call: active
PLVAP (GeneID 83483) #3 — total luciferase, z-score: 0.216; total luciferase, % of control: 86.2; luciferase per cell, z-score: 0.0344; call: inactive
WWTR1 (GeneID 25937) #1 — total luciferase, z-score: 1.23; total luciferase, % of control: 106; luciferase per cell, z-score: 0.897; call: inactive
WWTR1 (GeneID 25937) #2 — total luciferase, z-score: -0.944; total luciferase, % of control: 63.1; luciferase per cell, z-score: -0.419; call: inactive
